Assay results published in PubChem BioAssay AID2517 (National Center for Advancing Translational Sciences (NCATS), 2010).
Out of some 350,000 compounds screened, about 1,200 (0.34%) were called active. Inconclusive means that the source gave no clear call. Such entries were picked first, then a sample of the others. The call rests on the fitted dose curve; in most records, active means well fitted inhibition curve with a large enough effect; inconclusive means small, poorly fitted or top-dose-only effect; inactive means no such curve, though single readings can be large or run the other way. Where the call is inconclusive, the potency comes from a doubtful curve fit.

By UniProt entry, the sequences of proteins in these tests, tags left out.
UniProt P27695, whole entry, looked up: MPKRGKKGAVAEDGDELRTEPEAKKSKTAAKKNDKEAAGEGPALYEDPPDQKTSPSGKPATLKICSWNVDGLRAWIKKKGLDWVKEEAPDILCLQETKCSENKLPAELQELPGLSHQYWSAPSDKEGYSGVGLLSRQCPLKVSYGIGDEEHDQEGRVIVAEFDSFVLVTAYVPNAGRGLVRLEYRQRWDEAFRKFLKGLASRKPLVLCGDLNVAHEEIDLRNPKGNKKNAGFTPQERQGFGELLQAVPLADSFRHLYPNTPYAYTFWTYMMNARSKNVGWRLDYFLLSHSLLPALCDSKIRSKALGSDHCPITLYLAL

target: DNA repair nuclease/redox regulator APEX1 (Homo sapiens) (UniProt P27695); assay: qHTS Assay for Inhibitors of the Human Apurinic/apyrimidinic Endonuclease 1 (APE1); settings: recombinant APE1, TAMRA/BHQ-2 abasic DNA cleavage fluorescence; series mostly up to 65.8 µM; further: nearly all actives have a fitted effect of over 55% in size
Method in brief: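 0.75 nM APE1 + cpd, 15 min RT; start w/ 50 nM TAMRA/BHQ-2 THF-abasic dsDNA; kinetic fluor 525/598 nm ×3 reads @60 s; Δ(read3−read1); normalized to DMSO and NSC13755 control wells.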
Potency means the concentration at half of the fitted maximal effect.

Structure (SMILES)	Potency
COc1cc(/C=N/NC(=O)Cc2ccc(Br)cc2)cc(OC)c1O	inactive
O=C1/C(=C/c2ccccc2Cl)SC(=S)N1CCCC(=O)N(CCO)c1ccccc1	inactive
O=C(OC(C(=O)NC1CCCCC1)c1ccccc1F)c1ccco1 (centres undefined)	inactive
CCn1ncc(NC(=S)Nc2ccc(OC)c(OC)c2)c1C(N)=O	inconclusive: 39.8 µM [inhibitor, single point]
CCOc1ccc(-c2nc(C#N)c(NC3CC3)o2)cc1	inconclusive: 0.0891 µM [inhibitor, full curve, poor fit]
CCCc1[nH]nc2c1C(c1ccc(OC)cc1OC)C(C#N)=C(N)O2 (centres undefined)	inconclusive: 7.94 µM [inhibitor, single point]
CCCCn1c(SCC(=O)NC(=O)NCc2ccco2)nc2cc(S(N)(=O)=O)ccc21	inconclusive: 22.4 µM [inhibitor, single point]
Nc1ncnc2nc(-c3ccc(N4CCOCC4)nc3)cc(-c3cccc(Br)c3)c12	inconclusive: 31.6 µM [inhibitor, single point]
COc1cc(/C=N/n2c(-c3ccccc3)n[nH]c2=S)cc(OC)c1O	inconclusive: 7.94 µM [inhibitor, single point]
COc1ccc(/C=N/NC(=O)C(C)N(c2ccc(OC)cc2)S(C)(=O)=O)cc1 (centres undefined)	inconclusive: 20 µM [inhibitor, single point]
COc1cnn(-c2cc(Oc3ccc(C)cc3)ncn2)c(=O)c1Cl	inconclusive: 17.8 µM [inhibitor, single point]
OCC1OC(c2ccc3c(c2)OCO3)C=CC1Oc1cc(Cl)cc(Cl)c1 (centres undefined)	inconclusive: 7.08 µM [inhibitor, single point]
Cc1cccc2nc(CSc3nc4ccccc4[nH]3)cn12	inconclusive: 3.98 µM [inhibitor, partial curve, poor fit]
CCOC(=O)c1sc(=S)n(-c2ccc(C)cc2)c1N	inactive
COc1cccc2c1C(=O)c1c(O)c3c(c(O)c1C2=O)C[C@](O)(C(C)=O)C[C@H]3O[C@@H]1C[C@H](N)[C@H](O)[C@H](C)O1	active: 10 µM
CCOC(=O)N1CCC(NC(=O)CCCC(=O)O)CC1	inconclusive: 4.47 µM [inhibitor, single point]
Cc1nc(NC2=NCN(CCc3ccccc3)CN2)nc2ccccc12	inconclusive: 1 µM [inhibitor, full curve, poor fit]
CC(=O)c1cnc(-c2cccc(Cl)c2)s1	inconclusive: 0.631 µM [inhibitor, full curve, poor fit]
O=C(COc1cc(Cl)ccc1Cl)Nc1ccc2[nH]c(=O)[nH]c2c1	inactive
C[C@](N)(C(=O)O)c1ccc(-c2nn[nH]n2)cc1	inconclusive: 39.8 µM [inhibitor, partial curve, poor fit]
Cc1ccc(NC2c3ncccc3C(=O)N2c2ccccc2C)cc1C (centres undefined)	inactive
CCn1ncc(Cl)c1C(=O)NC(C)c1ccccc1 (centres undefined)	inconclusive: 3.98 µM [inhibitor, full curve]

Structure (SMILES)	Potency
COc1cc(SC)ccc1C(=O)Nc1ccc2c(c1)CCC2	inactive
O=C1OCCC1Sc1nc2cc(Cl)ccc2n1Cc1ccccc1 (centres undefined)	inconclusive: 44.7 µM [inhibitor, single point]
COc1ccccc1CNC(=O)Cn1cc2c(n1)CCCC2	inconclusive: 5.62 µM [inhibitor, single point]
COc1cccc(/C=N/Nc2ccc(C(=O)O)cc2)c1O	inactive
Cc1ccc(OCC(=O)Oc2ccc(C)c(C)c2)cc1	inactive
COc1ncc2nc(-c3ccc(F)cc3)c(=O)n(CCC#N)c2n1	inactive
Cc1ccnc2nc(C(=O)Nc3nc(-c4ccccn4)cs3)nn12	inconclusive: 31.6 µM [inhibitor, single point]
Cc1noc(C)c1-c1ccc2ncnc(NCc3cccn3C)c2c1	inconclusive: 39.8 µM [inhibitor, single point]
CCOC(=O)C1CCCN(C(=O)c2csc(-c3ccc4c(c3)CCO4)n2)C1 (centres undefined)	inconclusive: 4.47 µM [inhibitor, single point]
COC(=O)C(C(=O)OC)C1c2ccccc2C=C(C2CC2)N1C(=O)OC (centres undefined)	inconclusive: 0.794 µM [inhibitor, single point]
CC1CCCCC1NC(=O)c1ccc(CSc2nc3ccncc3[nH]2)cc1 (centres undefined)	inconclusive: 7.94 µM [inhibitor, single point]
CS(=O)(=O)N1Cc2ccccc2CC1C(=O)OCC(=O)NCc1ccccc1 (centres undefined)	inconclusive: 16.8 µM [inhibitor, single point]
COc1cc(OC)cc(C(=O)N[C@H](C(=O)OCC(=O)Nc2sccc2C#N)C(C)C)c1	inconclusive: 35.5 µM [inhibitor, single point]
COc1ccccc1C(=O)N/N=C/c1ccc(Cl)s1	inconclusive: 10 µM [inhibitor, partial curve, poor fit]
Nc1cc2c(cc1[N+](=O)[O-])OCO2	inconclusive: 35.5 µM [inhibitor, single point]
Oc1ccc(N=Cc2sc3ccccc3c2Cl)cc1	inconclusive: 6.31 µM [inhibitor, partial curve, poor fit]
CCn1nnc2cc(C(=O)Nc3cc(Cl)ccc3C)ccc21	inactive
COc1ccc(/C=C2\C(=O)N(Cc3ccc(F)cc3)CC(=O)N2Cc2ccccc2)cc1	inconclusive: 35.5 µM [inhibitor, single point]
COc1ccc(-c2nn(-c3ccccc3)cc2C2CC(c3cccs3)=NN2C(=O)CCC(=O)O)cc1 (centres undefined)	inactive
CCOC(=O)C1=C(O)/C(=C/c2ccc(OCC(=O)O)c(OCC)c2)SC1=Nc1ccc(OC)cc1	inconclusive: 25.1 µM [inhibitor, single point]
Cc1ccc(C(=O)NN2C(=O)/C(=C/c3cn(C)c4ccccc34)SC2=S)cc1	inactive
CCSc1nnc(-c2sc3nnc(-c4ccccc4)c(-c4ccccc4)c3c2N)o1	inconclusive: 39.8 µM [inhibitor, single point]

A few values from the list.
Entry for `Cc1ccnc2nc(C(=O)Nc3nc(-c4ccccn4)cs3)nn12` under Potency: inconclusive: 31.6 µM [inhibitor, single point]
Entry for `COC(=O)C(C(=O)OC)C1c2ccccc2C=C(C2CC2)N1C(=O)OC` (centres undefined) under Potency: inconclusive: 0.794 µM [inhibitor, single point]
